Experiments:
[1] = Saturation C* of bar-coated ink image sample; conditions: ink of the compound, bar coating (Bar No. 10)
Procedure: (§1) Inks (1), (4), (11), (18), (23), (26), and (28) and Comparative Inks (1) and (2) were each applied onto paper for contrast ratio measurement by bar coating (Bar No. 10) and were air-dried overnight to produce image samples. Chromaticity values (L*, a*, b*) in the L*a*b* color system of each image sample were measured with a reflection densitometer SpectroLino (manufactured by Gretag Macbeth AG). The saturation (C*) was calculated based on the measured color characteristic values by the following expression: C*=√{square root over ((a*)^2+(b*)^2)} [Math. 1]
Saturation was evaluated based on the saturation C* at the time at which the image sample was produced by the bar coating (Bar No. 10). The saturation C* was calculated by the above-mentioned expression.

[2] = Chromaticity (L*a*b*) and color tone of bar-coated ink image sample; design: key to color tone evaluation at L* = 92: A: a* is less than −5.0 and b* is 100.0 or more; B: a* is −5.0 or more and b* is 100.0 or more; C: b is less than 100.0; conditions: ink of the compound, bar coating on paper
Procedure: as §1
It is recognized that a larger increase of the chromaticity in the green gamut at a constant value L* is useful for increasing the green gamut. In this Example, the color tone was evaluated based on the values of a* and b* at an L* of 92 as follows:
A: a* is less than −5.0 and b* is 100.0 or more,
B: a* is −5.0 or more and b* is 100.0 or more, and […]

| Compound | C* in bar coating (No. 10) [1] | Saturation evaluation [1] | a* at L* = 92 [2] | b* at L* = 92 [2] | color tone evaluation at L* = 92 [2] |
| --- | --- | --- | --- | --- | --- |
| CCCCC(CC)CN(CC(CC)CCCC)C(=O)c1ccccc1/N=N/c1c(O)[nH]c(=O)c(C(=O)OCC)c1C (stereo not drawn) [Compound 1] | 110.7 | B (108.0<C*≦112.0) | −11.3 | 110.1 | A |
| CCCCC(CC)CN(CC(CC)CCCC)S(=O)(=O)c1ccccc1/N=N/c1c(O)[nH]c(=O)c(C(=O)OCC)c1C (stereo not drawn) [Compound 4] | 113.3 | A (112.0<C*) | −10.3 | 112.8 | A |
| CCCCC(CC)CN(CC(CC)CCCC)C(=O)c1cccc(/N=N/c2c(O)[nH]c(=O)c(C(=O)OCC)c2C)c1 (stereo not drawn) [Compound 11] | 110.3 | B (108.0<C*≦112.0) | −11.3 | 109.8 | A |
| CCCCC(CC)CN(CC(CC)CCCC)C(=O)c1ccc(/N=N/c2c(O)[nH]c(=O)c(C(=O)OCC)c2C)cc1 (stereo not drawn) [Compound 18] | 117.7 | A (112.0<C*) | −8.2 | 117.4 | A |
| CCCCC(CC)CN(CC(CC)CCCC)C(=O)c1ccccc1/N=N/c1c(O)[nH]c(=O)c(C(=O)NC(C)(C)C)c1C (stereo not drawn) [Compound 23] | 115.5 | A (112.0<C*) | −9.0 | 115.2 | A |
| CCCCCc1c(/N=N/c2ccccc2C(=O)N(CC(CC)CCCC)CC(CC)CCCC)c(O)[nH]c(=O)c1C(=O)N1CCCCC1 (stereo not drawn) [Compound 26] | 108.2 | B (108.0<C*≦112.0) | −12.4 | 107.5 | A |
| CCOC(=O)c1c(C)c(/N=N/c2ccccc2C(=O)N(C2CCCCC2)C2CCCCC2)c(O)[nH]c1=O [Compound 28] | 108.4 | B (108.0<C*≦112.0) | −9.1 | 108.0 | A |
| CCCCC(CC)CN(CC(CC)CCCC)S(=O)(=O)c1ccc(/N=N/c2c(O)[nH]c(=O)c(C#N)c2C)cc1 (stereo not drawn) [compound 1, reference compound] | 105.4 | C (C*<108.0) | −2.6 | 105.4 | B |
| CCCCC(CC)CN(CC(CC)CCCC)C(=O)c1ccc(/N=N/c2c(O)[nH]c(=O)c(C#N)c2C)cc1 (stereo not drawn) [compound 2, reference compound] | 90.4 | C (C*<108.0) | −7.2 | 90.1 | C (b is less than 100.0) |

Reference: patent US9388313B2, “Water-insoluble coloring compound, ink, thermal transfer recording sheet, and color filter resist composition” (CANON KABUSHIKI KAISHA, priority 2012, dated 2016)
